Data set [1] relates to Sephadex-induced lung edema. The data set is described as follows: Sephadex-induced lung edema. It is filed as in vivo, SD rats. As to conditions: i.t. On the procedure: Sephadex® G-200 was prepared in sterile saline (10 mg/ml) and allowed to swell for at least 3 days at room temperature. Test compounds were administered intratracheally at 24 hrs and 2 hrs prior to intratracheal administration of Sephadex® (5 mg/kg) under light ether anesthesia. Vehicle control animals were administered vehicle instead of Sephadex®. At 24 hr after Sephadex® instillation, lung and thymus were excised from individual animals and weighed. Wet weights of lungs and thymus were corrected for 100 g of initial body weight. The percentage increase in lung weight caused by Sephadex® and its inhibitions by the compounds, were calculated. The percentage inhibitions of thymus compared to vehicle control group were also calculated

Data set [2] concerns cotton pellet granuloma. The data set is described as follows: Cotton pellet granuloma test. As to conditions: 100 mcg/pellet. It is filed as in vivo, SD rats. On the procedure: SD rats were used for assessing anti-inflammatory activity of test compound using cotton pellet granuloma method. Sterilized cotton pellets weighing 20 mg were prepared. Test compounds were dissolved in acetone so as to get the required quantity for each cotton pellet in 500 μl. Different pellets were impregnated with 500 μl of acetone to contain required quantity of test compounds and allowed to dry. Vehicle control pellets were impregnated with 500 μl acetone.
Rats were made into different groups. Two cotton pellets were surgically implanted into the scapular region of each rat. On sixth day of such implantation, pellets along with granuloma were taken out. Thymus gland was also separated from each animal and weighed. The pellets with granuloma were dried for 20 hrs at 60° C. and weighed. Mean weights of dry granuloma and thymus, body weight gain/100 g body weights were calculated.

Structures are written as SMILES.

On to `CCC(=O)O[C@]1(C(=O)SCF)[C@H](C)C[C@H]2[C@@H]3C[C@H](F)C4=CC(=O)C=C[C@]4(C)[C@@]3(F)[C@@H](O)C[C@@]21C` [Fluticasone propionate], for which the “Safety index ED50 Thymus involution/ED50 Lung edema” value in data set [1] is given as 4.19. Also, the “Ratio A/B (measure of safety index)” value in data set [2] was 0.89.
The matching figures for `C[C@@H]1CC2C3C[C@H](F)C4=CC(=O)C=C[C@]4(C)[C@@]3(F)[C@@H](O)C[C@]2(C)[C@@]1(OC(=O)c1ccco1)C(=O)SCC#CCOC(=O)CC(C)(C)F` (stereo partly drawn) [Formula I, S-[4-(3-Fluoro-3-methylbutyryloxy)but-2-ynyl]6α,9α-difluoro-17α-(furan-2-yl)carbonyloxy-11β-hydroxy-16α-methyl-3-oxoandrosta-1,4-diene-17β-carbothioate]: 92.55 and 12.44.
The matching figures for `CC(C)C(=O)OCC(=O)[C@@]12O[C@H](C3CCCCC3)O[C@@H]1C[C@H]1[C@@H]3CCC4=CC(=O)C=C[C@]4(C)[C@H]3[C@@H](O)C[C@@]12C` [Ciclesonide]: 8.07 and 4.18.

The record behind these values is patent US9458187B2, “Methods for treatment of inflammatory conditions using S-[4-(3-fleuro-3-methylbutyryloxy)but-2-ynyl]6α, 9α-difluoro-17α-(furan-2-yl) carbonyloxy-11β-hydroxy-16α-methyl-3-oxoandrosta-1,4-diene-17β-carbothioate” (Sun Pharma Advanced Research Company Limited, priority 2013, dated 2016).
